This note sets out measurements from article PMC4364741.

The chains behind the UniProt entries cited, without tags or fusion partners. Residues count along the entry.
UniProt Q9JXK7, residues 24-362: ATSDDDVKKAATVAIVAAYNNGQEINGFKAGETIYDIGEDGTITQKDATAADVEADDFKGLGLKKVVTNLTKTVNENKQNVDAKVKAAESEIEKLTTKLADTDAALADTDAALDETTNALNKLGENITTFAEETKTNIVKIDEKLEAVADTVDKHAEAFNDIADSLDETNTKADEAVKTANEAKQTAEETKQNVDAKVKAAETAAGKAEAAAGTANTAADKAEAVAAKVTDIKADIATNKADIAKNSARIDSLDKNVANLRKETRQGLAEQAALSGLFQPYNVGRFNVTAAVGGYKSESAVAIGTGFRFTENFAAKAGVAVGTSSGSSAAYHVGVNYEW
UniProt Q9JXV4, residues 20-274: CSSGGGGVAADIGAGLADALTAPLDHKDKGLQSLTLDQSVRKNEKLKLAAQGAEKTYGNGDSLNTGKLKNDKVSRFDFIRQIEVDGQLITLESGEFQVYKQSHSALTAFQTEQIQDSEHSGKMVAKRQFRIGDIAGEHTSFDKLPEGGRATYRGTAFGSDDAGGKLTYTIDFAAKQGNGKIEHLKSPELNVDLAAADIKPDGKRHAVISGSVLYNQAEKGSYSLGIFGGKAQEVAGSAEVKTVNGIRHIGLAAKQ
UniProt P48759, residues 18-381: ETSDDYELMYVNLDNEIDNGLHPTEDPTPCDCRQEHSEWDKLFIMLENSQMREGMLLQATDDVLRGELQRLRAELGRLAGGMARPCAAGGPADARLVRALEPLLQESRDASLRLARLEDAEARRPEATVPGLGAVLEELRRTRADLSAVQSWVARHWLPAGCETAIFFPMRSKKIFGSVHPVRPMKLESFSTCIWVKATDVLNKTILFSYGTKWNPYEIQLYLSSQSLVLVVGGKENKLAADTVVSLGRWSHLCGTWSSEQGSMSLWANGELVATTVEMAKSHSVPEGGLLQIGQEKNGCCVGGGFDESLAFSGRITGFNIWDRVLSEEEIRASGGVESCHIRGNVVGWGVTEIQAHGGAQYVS
UniProt P26022, residues 18-381: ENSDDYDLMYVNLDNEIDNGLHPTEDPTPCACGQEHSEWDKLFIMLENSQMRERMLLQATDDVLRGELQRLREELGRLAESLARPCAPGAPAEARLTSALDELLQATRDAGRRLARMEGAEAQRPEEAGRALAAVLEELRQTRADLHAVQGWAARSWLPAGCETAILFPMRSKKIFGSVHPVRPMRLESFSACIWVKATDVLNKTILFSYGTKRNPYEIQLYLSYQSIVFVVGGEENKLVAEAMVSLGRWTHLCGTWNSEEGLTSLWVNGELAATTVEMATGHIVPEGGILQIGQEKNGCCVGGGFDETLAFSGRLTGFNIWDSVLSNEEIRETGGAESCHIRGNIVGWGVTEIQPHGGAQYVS
UniProt P02743, residues 20-223: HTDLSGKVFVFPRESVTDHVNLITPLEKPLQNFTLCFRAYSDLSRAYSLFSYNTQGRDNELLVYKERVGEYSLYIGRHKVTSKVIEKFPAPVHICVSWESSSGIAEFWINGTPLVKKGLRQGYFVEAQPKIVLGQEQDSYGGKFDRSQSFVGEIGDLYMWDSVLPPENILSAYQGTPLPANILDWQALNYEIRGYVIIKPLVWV

Test [1] deals with Genome-derived Neisserial antigen GNA1994 (Neisseria meningitidis) (UniProt Q9JXK7). Description: ELISA; plastic wells coated with the recombinant Nm proteins (1 μg/well), incubated with human or murine PTX3, human CRP or SAP (22 pmoles) for 1 h at 37°C, then antibodies; A450; both purified.
The target in test [2] is Genome-derived Neisserial antigen GNA1220 (Neisseria meningitidis) (UniProt Q7DDD7). The description is as above.
Test [3] deals with T1, Genome-derived Neisserial antigen GNA0667 (Neisseria meningitidis) (UniProt Q9K0E2).
T1 sequence: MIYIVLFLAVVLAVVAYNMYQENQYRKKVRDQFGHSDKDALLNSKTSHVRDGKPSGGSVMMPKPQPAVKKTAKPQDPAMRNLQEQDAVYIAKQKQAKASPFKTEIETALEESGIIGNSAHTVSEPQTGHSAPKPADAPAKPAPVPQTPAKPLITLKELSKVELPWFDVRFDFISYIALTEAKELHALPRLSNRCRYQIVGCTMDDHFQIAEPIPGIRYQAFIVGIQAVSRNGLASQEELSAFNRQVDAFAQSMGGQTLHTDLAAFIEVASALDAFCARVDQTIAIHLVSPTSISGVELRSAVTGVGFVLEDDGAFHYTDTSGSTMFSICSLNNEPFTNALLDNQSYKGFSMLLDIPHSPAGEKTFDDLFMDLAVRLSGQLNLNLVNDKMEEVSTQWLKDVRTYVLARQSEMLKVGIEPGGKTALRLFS
Described as above.

Test [4] deals with GNA1870 (factor H binding protein, fHbp) (Neisseria meningitidis) (UniProt Q9JXV4). Described as above.
Test [5] has as its target T2, GNA2132 (Neisserial heparin binding antigen, NHBA) (Neisseria meningitidis) (UniProt Q7DD37).
T2 sequence: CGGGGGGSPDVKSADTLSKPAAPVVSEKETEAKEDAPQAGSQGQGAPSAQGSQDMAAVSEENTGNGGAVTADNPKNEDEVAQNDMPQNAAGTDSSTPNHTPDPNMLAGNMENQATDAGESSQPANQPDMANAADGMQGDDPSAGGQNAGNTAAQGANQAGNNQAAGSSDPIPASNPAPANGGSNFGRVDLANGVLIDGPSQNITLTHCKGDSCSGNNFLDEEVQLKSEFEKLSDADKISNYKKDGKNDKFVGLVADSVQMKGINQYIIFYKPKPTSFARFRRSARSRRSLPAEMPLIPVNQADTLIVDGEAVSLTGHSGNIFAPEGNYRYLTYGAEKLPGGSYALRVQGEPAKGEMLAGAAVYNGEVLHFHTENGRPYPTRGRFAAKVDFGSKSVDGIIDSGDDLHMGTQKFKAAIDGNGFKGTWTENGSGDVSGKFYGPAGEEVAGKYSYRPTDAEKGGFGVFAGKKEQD
The test is described as above.

In test [6] the target is Ovoalbumin (OVA) (UniProt P01012). The test can be described thus: ELISA; human bPTX3 on immobilized OVA (1 μg/well); A450; both purified. (ELISA stands for enzyme-linked immunosorbent assay.)
In test [7] the target is T1, Genome-derived Neisserial antigen GNA0667 (Neisseria meningitidis). Description: ELISA; microtiter plate; different doses of bPTX3 on coated GNA0667, GNA1030 and GNA2091 (1 μg/well); both purified.
Test [8] has the same target. Description: ELISA; microtiter plate; PTX3 on coated Nm antigens in the presence or not of calcium (10 mM EGTA); both purified.
Test [9] shares this target. Description: ELISA; microtiter plate; N-terminal or C-terminal PTX3 domains (22 pmoles) on coated GNA0667, GNA1030 and GNA2091; percentage of binding compared to full length PTX3; both purified.

These are yes or no findings as the source states them, for the method shown. Some binding calls cover weakened binding; strength is not graded here.

For the substance “Recombinant murine PTX3 (from UniProt P48759 18-381)”, the binding entry is reported as “no binding (tested: 22 pmoles)” in test [1]; “no binding (tested: 22 pmoles)” in test [2]; “binds” in [3]; “no binding (tested: 22 pmoles)” in [4]; “no binding (tested: 22 pmoles)” in test [5].
Take “Biotinylated human PTX3 (bPTX3) (from UniProt P26022 18-381)”: the binding entry in [6] is “no binding”; in test [7], “binds”; in test [8] it was “binds”.
For “Recombinant human long pentraxin 3 (PTX3) (from UniProt P26022 18-381)”, the binding result in test [1] was “no binding (tested: 22 pmoles)”; in test [2] it was “no binding (tested: 22 pmoles)”; in test [3] it was “binds”; in test [4], “no binding (tested: 22 pmoles)”; in test [5] it was “no binding (tested: 22 pmoles)”; in test [9] it was “binds”.
For the substance “Serum amyloid P component (from UniProt P02743 20-223)”, the binding entry in test [3] is recorded as “binds”.
